pIC50: −log10 of the molar value. Some results were stated once for a whole list of compounds, not compound by compound.
Columns and labels:
[1] = target: β-adrenergische Rezeptoren; assay: Antagonism of epinephrine activation of an adenylate cyclase preparation from cerebellum; format: biochemical, Meerschweinchen; details: guinea pig cerebellum adenylate cyclase preparation; read-out: IC50-Wert (Antagonismus der Epinephrin-Aktivierung der Adenylatcyclase)
[2] = target: a-Rezeptor; assay: α-receptor binding test: inhibition of 3H-prazosin binding to synaptosomal forebrain membrane preparation; parameters: species or system Ratten; details: rat forebrain synaptosomal membranes, read-out: IC-Werten (a-Rezeptorbindungstest)

C=CCOc1ccccc1OCC(O)CN[C@H]1CC[C@@H](N2CCNC2=O)CC1 (mixture of isomers) [Beispiel 1, cis-1-(4-[3-(o-Allyloxyphenoxy)-2-hydroxypropylamino]-cyclohexyl)-2-imidazolidinon-hemifumarat]
pIC50 [1]: 8.30 to 8.52 | pIC50 [2]: ~6.00

O=C1NCCN1[C@H]1CC[C@@H](NCC(O)COc2ccccc2OCC2CC2)CC1 (mixture of isomers) [Beispiel 3m]
pIC50 [2]: ~6.00

O=C1NCCN1[C@H]1CC[C@@H](NC[C@H](O)COc2ccccc2OCC2CC2)CC1 [Beispiel 2a, (S)-cis-1-(4-[3-(o-Cyclopropylmethoxyphenoxy)-2-hydroxypropylamino]-cyclohexyl)-2-imidazolidinon-hemifumarat]
pIC50 [1]: 8.30 to 8.52 | pIC50 [2]: ~6.00

From EP0096006A2, “3-(Ureidocyclohexylamino)-propane-1,2-diol derivatives, process for their preparation, pharmaceutical preparations containing these compounds and their therapeutical use” (CIBA-GEIGY AG, priority 1982, dated 1983)
